Measurements as given in paper PMC5841321.

B1: Ribosome biogenesis protein BRX1 homolog (protein, UniProt Q8TDN6 1-353)
chain: MAATKRKRRGGFAVQAKKPKRNEIDAEPPAKRHATAEEVEEEERDRIPGPVCKGKWKNKERILIFSSRGINFRTRHLMQDLRMLMPHSKADTKMDRKDKLFVINEVCEMKNCNKCIYFEAKKKQDLYMWLSNSPHGPSAKFLVQNIHTLAELKMTGNCLKGSRPLLSFDPAFDELPHYALLKELLIQIFSTPRYHPKSQPFVDHVFTFTILDNRIWFRNFQIIEEDAALVEIGPRFVLNLIKIFQGSFGGPTLYENPHYQSPNMHRRVIRSITAAKYREKQQVKDVQKLRKKEPKTLLPHDPTADVFVTPAEEKPIEIQWVKPEPKVDLKARKKRIYKRQRKMKQRMDSGKTK
B2: U4/U6 small nuclear ribonucleoprotein Prp3 (protein, UniProt O43395 1-683)
chain: MALSKRELDELKPWIEKTVKRVLGFSEPTVVTAALNCVGKGMDKKKAADHLKPFLDDSTLRFVDKLFEAVEEGRSSRHSKSSSDRSRKRELKEVFGDDSEISKESSGVKKRRIPRFEEVEEEPEVIPGPPSESPGMLTKLQIKQMMEAATRQIEERKKQLSFISPPTPQPKTPSSSQPERLPIGNTIQPSQAATFMNDAIEKARKAAELQARIQAQLALKPGLIGNANMVGLANLHAMGIAPPKVELKDQTKPTPLILDEQGRTVDATGKEIELTHRMPTLKANIRAVKREQFKQQLKEKPSEDMESNTFFDPRVSIAPSQRQRRTFKFHDKGKFEKIAQRLRTKAQLEKLQAEISQAARKTGIHTSTRLALIAPKKELKEGDIPEIEWWDSYIIPNGFDLTEENPKREDYFGITNLVEHPAQLNPPVDNDTPVTLGVYLTKKEQKKLRRQTRREAQKELQEKVRLGLMPPPEPKVRISNLMRVLGTEAVQDPTKVEAHVRAQMAKRQKAHEEANAARKLTAEQRKVKKIKKLKEDISQGVHISVYRVRNLSNPAKKFKIEANAGQLYLTGVVVLHKDVNVVVVEGGPKAQKKFKRLMLHRIKWDEQTSNTKGDDDEESDEEAVKKTNKCVLVWEGTAKDRSFGEMKFKQCPTENMAREHFKKHGAEHYWDLALSESVLESTD
B3: U4/U6 small nuclear ribonucleoprotein Prp4 (protein, UniProt O43172 1-522)
chain: MASSRASSTQATKTKAPDDLVAPVVKKPHIYYGSLEEKERERLAKGESGILGKDGLKAGIEAGNINITSGEVFEIEEHISERQAEVLAEFERRKRARQINVSTDDSEVKACLRALGEPITLFGEGPAERRERLRNILSVVGTDALKKTKKDDEKSKKSKEEYQQTWYHEGPNSLKVARLWIANYSLPRAMKRLEEARLHKEIPETTRTSQMQELHKSLRSLNNFCSQIGDDRPISYCHFSPNSKMLATACWSGLCKLWSVPDCNLLHTLRGHNTNVGAIVFHPKSTVSLDPKDVNLASCAADGSVKLWSLDSDEPVADIEGHTVRVARVMWHPSGRFLGTTCYDRSWRLWDLEAQEEILHQEGHSMGVYDIAFHQDGSLAGTGGLDAFGRVWDLRTGRCIMFLEGHLKEIYGINFSPNGYHIATGSGDNTCKVWDLRQRRCVYTIPAHQNLVTGVKFEPIHGNFLLTGAYDNTAKIWTHPGWSPLKTLAGHEGKVMGLDISSDGQLIATCSYDRTFKLWMAE
B4: Pre-mRNA-processing factor 6 (protein, UniProt O94906 1-941)
chain: MNKKKKPFLGMPAPLGYVPGLGRGATGFTTRSDIGPARDANDPVDDRHAPPGKRTVGDQMKKNQAADDDDEDLNDTNYDEFNGYAGSLFSSGPYEKDDEEADAIYAALDKRMDERRKERREQREKEEIEKYRMERPKIQQQFSDLKRKLAEVTEEEWLSIPEVGDARNKRQRNPRYEKLTPVPDSFFAKHLQTGENHTSVDPRQTQFGGLNTPYPGGLNTPYPGGMTPGLMTPGTGELDMRKIGQARNTLMDMRLSQVSDSVSGQTVVDPKGYLTDLNSMIPTHGGDINDIKKARLLLKSVRETNPHHPPAWIASARLEEVTGKLQVARNLIMKGTEMCPKSEDVWLEAARLQPGDTAKAVVAQAVRHLPQSVRIYIRAAELETDIRAKKRVLRKALEHVPNSVRLWKAAVELEEPEDARIMLSRAVECCPTSVELWLALARLETYENARKVLNKARENIPTDRHIWITAAKLEEANGNTQMVEKIIDRAITSLRANGVEINREQWIQDAEECDRAGSVATCQAVMRAVIGIGIEEEDRKHTWMEDADSCVAHNALECARAIYAYALQVFPSKKSVWLRAAYFEKNHGTRESLEALLQRAVAHCPKAEVLWLMGAKSKWLAGDVPAARSILALAFQANPNSEEIWLAAVKLESENDEYERARRLLAKARSSAPTARVFMKSVKLEWVQDNIRAAQDLCEEALRHYEDFPKLWMMKGQIEEQKEMMEKAREAYNQGLKKCPHSTPLWLLLSRLEEKIGQLTRARAILEKSRLKNPKNPGLWLESVRLEYRAGLKNIANTLMAKALQECPNSGILWSEAIFLEARPQRRTKSVDALKKCEHDPHVLLAVAKLFWSQRKITKAREWFHRTVKIDSDLGDAWAFFYKFELQHGTEEQQEEVRKRCESAEPRHGELWCAVSKDIANWQKKIGDILRLVAGRIKNTF
B5: Ribose-phosphate pyrophosphokinase 1 (protein, UniProt P60891 1-318)
chain: MPNIKIFSGSSHQDLSQKIADRLGLELGKVVTKKFSNQETCVEIGESVRGEDVYIVQSGCGEINDNLMELLIMINACKIASASRVTAVIPCFPYARQDKKDKSRAPISAKLVANMLSVAGADHIITMDLHASQIQGFFDIPVDNLYAEPAVLKWIRENISEWRNCTIVSPDAGGAKRVTSIADRLNVDFALIHKERKKANEVDRMVLVGDVKDRVAILVDDMADTCGTICHAADKLLSAGATRVYAILTHGIFSGPAISRINNACFEAVVVTNTIPQEDKMKHCSKIQVIDISMILAEAIRRTHNGESVSYLFSHVPL
B6: Ribose-phosphate pyrophosphokinase 2 (protein, UniProt P11908 1-318)
chain: MPNIVLFSGSSHQDLSQRVADRLGLELGKVVTKKFSNQETSVEIGESVRGEDVYIIQSGCGEINDNLMELLIMINACKIASSSRVTAVIPCFPYARQDKKDKSRAPISAKLVANMLSVAGADHIITMDLHASQIQGFFDIPVDNLYAEPAVLQWIRENIAEWKNCIIVSPDAGGAKRVTSIADRLNVEFALIHKERKKANEVDRMVLVGDVKDRVAILVDDMADTCGTICHAADKLLSAGATKVYAILTHGIFSGPAISRINNAAFEAVVVTNTIPQEDKMKHCTKIQVIDISMILAEAIRRTHNGESVSYLFSHVPL
B7: Phosphoribosyl pyrophosphate synthase-associated protein 1 (protein, UniProt Q14558 1-356)
chain: MNAARTGYRVFSANSTAACTELAKRITERLGAELGKSVVYQETNGETRVEIKESVRGQDIFIIQTIPRDVNTAVMELLIMAYALKTACARNIIGVIPYFPYSKQSKMRKRGSIVCKLLASMLAKAGLTHIITMDLHQKEIQGFFSFPVDNLRASPFLLQYIQEEIPNYRNAVIVAKSPDAAKRAQSYAERLRLGLAVIHGEAQCTELDMDDGRHSPPMVKNATVHPGLELPLMMAKEKPPITVVGDVGGRIAIIVDDIIDDVESFVAAAEILKERGAYKIYVMATHGILSAEAPRLIEESSVDEVVVTNTVPHEVQKLQCPKIKTVDISLILSEAIRRIHNGESMAYLFRNITVDD
B8: Phosphoribosyl pyrophosphate synthase-associated protein 2 (protein, UniProt O60256 1-369)
chain: MFCVTPPELETKMNITKGGLVLFSANSNSSCMELSKKIAERLGVEMGKVQVYQEPNRETRVQIQESVRGKDVFIIQTVSKDVNTTIMELLIMVYACKTSCAKSIIGVIPYFPYSKQCKMRKRGSIVSKLLASMMCKAGLTHLITMDLHQKEIQGFFNIPVDNLRASPFLLQYIQEEIPDYRNAVIVAKSPASAKRAQSFAERLRLGIAVIHGEAQDAESDLVDGRHSPPMVRSVAAIHPSLEIPMLIPKEKPPITVVGDVGGRIAIIVDDIIDDVDSFLAAAETLKERGAYKIFVMATHGLLSSDAPRRIEESAIDEVVVTNTIPHEVQKLQCPKIKTVDISMILSEAIRRIHNGESMSYLFRNIGLDD
B9: Coiled-coil domain-containing protein 124 (protein, UniProt Q96CT7 1-223)
chain: MPKKFQGENTKSAAARARRAEAKAAADAKKQKELEDAYWKDDDKHVMRKEQRKEEKEKRRLDQLERKKETQRLLEEEDSKLKGGKAPRVATSSKVTRAQIEDTLRRDHQLREAPDTAEKAKSHLEVPLEENVNRRVLEEGSVEARTIEDAIAVLSVAEEAADRHPERRMRAAFTAFEEAQLPRLKQENPNMRLSQLKQLLKKEWLRSPDNPMNQRAVPFNAPK

Target: T1, E3 ubiquitin-protein ligase Midline-1 (UniProt O15344)
T1 sequence: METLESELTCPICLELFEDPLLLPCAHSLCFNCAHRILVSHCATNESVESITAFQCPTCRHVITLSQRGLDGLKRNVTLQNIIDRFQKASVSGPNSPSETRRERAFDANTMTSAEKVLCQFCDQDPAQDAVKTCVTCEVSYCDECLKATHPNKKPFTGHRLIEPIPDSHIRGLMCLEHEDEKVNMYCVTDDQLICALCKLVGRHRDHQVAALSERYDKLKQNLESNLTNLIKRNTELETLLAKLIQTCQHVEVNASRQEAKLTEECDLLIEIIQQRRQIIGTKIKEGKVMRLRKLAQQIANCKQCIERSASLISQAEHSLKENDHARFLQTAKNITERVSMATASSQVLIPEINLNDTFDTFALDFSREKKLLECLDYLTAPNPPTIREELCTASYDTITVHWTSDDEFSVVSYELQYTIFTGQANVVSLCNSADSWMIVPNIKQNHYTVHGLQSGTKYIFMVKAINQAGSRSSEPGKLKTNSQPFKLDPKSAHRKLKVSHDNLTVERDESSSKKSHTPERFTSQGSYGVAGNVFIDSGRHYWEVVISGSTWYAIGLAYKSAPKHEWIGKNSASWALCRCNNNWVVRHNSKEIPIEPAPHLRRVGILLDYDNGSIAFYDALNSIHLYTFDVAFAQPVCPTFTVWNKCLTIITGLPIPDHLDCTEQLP
Assay: affinity purification with mass spectrometry; MID1-FLAG expressed in HEK293T, lysate in TKM buffer (20 mM Tris pH 7.4, 100 mM KCl, 5 mM MgCl2, 0.5% NP40, 1 mM DTT), anti-FLAG M1 agarose overnight at 4 °C, 6 washes; untransfected cells as control; Q-Exactive, MaxQuant, 1% FDR

Which binding does the source give for B1 here?
The binding was “binds”.

B2 was tested. Which binding did it give?
The binding was “binds”.

With B3 as the binder, how does the binding read?
Its binding is “binds”.

With B4 as the binder, how does the binding read?
The binding was “binds”.

For B5, which binding is on record?
The binding was “binds”.

With B6 as the binder, how does the binding read?
Its binding is “binds”.

For B7, which binding is on record?
Its binding is “binds”.

B8 was tested. Which binding did it give?
Its binding is “binds”.

B9 was tested. Which binding did it give?
Its binding is “binds”.

No constants are given. Whether binding was seen depends on the method and setting. Binding seen in cells or lysates may run through a third protein. A yes stands for co-enrichment or nearness to the bait. Other partners may have been found.
